At least one peptide structure holds a part that was inferred or is arguable (an end, a ring closure or a residue). Bridge positions count the residues as written; N and C are the ends. Ends that are not written are not given here.
What was measured:
[1] = test system: non differentiated breast epithelial cells of the type MCF-10A; assay: Effect on propagation of non malignant breast epithelial cells MCF-10A (comparison); type: cell-based, human; conditions: same conditions as MCF-7
[2] = test system: murine peritoneal macrophages; assay: Effect on murine peritoneal macrophages (NO, TNF-α, IL-10, survival); type: cell-based, CD1 mice; conditions: 24 hours; for IL-10 / TNF-α: control 0; for NO: control 1.1
Description: Murine peritoneal macrophages extracted from CD1 mice were used. A peritoneal flushing was carried out using 5 ml of PBS. After three washing processes with RPMI 1640 the cells were put into a 96-well culturing plate with a concentration of 1×10^6 cells/ml (200 μl/well) in 10% FCS-RPMI 1640 medium and kept for 24 hours. After the incubation the cells were washed three times with RPMI 1640 and resuspended in 10% FCS-RPMI 1640 medium (100 μl/well) in the absence (non stimulated) or in the presence (stimulated) of different stimulants. After 24 hours of incubation NO, IL-10 and TNF-α were measured in the culture supernatant.

[3] = test system: lung carcinoma cell line: A549; assay: Living A549 cells by AlamarBlue test; type: cell-based, homo sapiens; conditions: 100 μg/ml, after 72 h, FIG. 4
Description: Cell line: lung carcinoma cell line: A549 (ATCC No. CCL-185™), organism: homo sapiens, literature: Giard D J, et al. J. Natl. Cancer Inst. 51: 1417-1423, 1973.
After adherence of the cells (incubation 24 h, cell amount 5×10^3 cells per batch), the cells were treated for 72 h with MCS and/or peptides (CZT, DZT) and afterwards the percentage of living cells was measured by AlamarBlue test.
AlamarBlue™ cell growth test was carried out according to the specifications of the manufacturer (Serotec, Oxford, England, www.serotc.com).

[4] = test system: breast cancer cell culture line MCF-7; assay: Effect on the proliferation of human cancer cells, MCF-7; type: cell-based; conditions: 0.2 to 400 μg/ml tested, up to 6 days, FIG. 3
[5] = test system: Colon cancer cell line: Colo 205; assay: Living Colo 205 cells by MTT test; type: cell-based, homo sapiens; conditions: 24 h
Description: After adherence of the cells (incubation 24 h, cell amount 1×10^4 cells per batch), the cells were treated for 24 h with MCS and/or peptides (Hellethionin C (CZT), Hellethionin D (DZT)) and afterwards the percentage of living cells was measured by MTT test.
The MTT cell growth test was carried out according to Alley et. al. (M. C. Alley et al., Proc. Am. Assoc. Cancer Res., 27:389, 1986; M. C. Alley et al., Cancer Res. 48:589-601, 1988). The finale concentration of 3-(4,5-dimethylthiazol-2-yl)-2,5-diphenyltetrazoliumbromide was 0.4 mg/ml.

KSCCRNTLGRNCYNACRLTGTSQATCATLCDCIHVTATTCRPPYPS (disulfide 3-40, 4-32, 12-30, 16-26) [HT-C, hellethionin-C]
inhibitory effect on the propagation of non malignant epithelial cells [1]: significantly minor inhibitory effect
IL-10 ([2]; 5 μg/ml): 6 pg/mL
TNF-α ([2]; 5 μg/ml): 244 pg/mL
NO ([2]; 5 μg/ml): 0.7 µM
IL-10 ([2]; 100 μg/ml): 26 pg/mL
TNF-α ([2]; 100 μg/ml): 312 pg/mL
NO ([2]; 100 μg/ml): 0.8 µM
living cells (A549) [3]: about 50%
concentration from which a very clear inhibition of the propagation of the cells is caused [4]: ≥ 2 µg/mL
Living Colo 205 cells ([5]; 50 μg/ml): 92.15%
Living Colo 205 cells ([5]; 100 μg/ml, listed as CZT): about 50%
Living Colo 205 cells ([5]; 100 μg/ml, listed as CZT peptide): 48.36%

— patent publication US7750114B2, “Peptides having a high cysteine content” (priority 2002, dated 2010)
